Test results taken from PMC6205631, “Topological in vitro loading of the budding yeast cohesin ring onto DNA” (Life Science Alliance, 2018).
These are yes or no findings as the source states them, for the method shown. Some binding calls cover weakened binding; strength is not graded here.

B1: Scc4 (protein, UniProt P40090 1-624)
chain: MENLGDKLSISQVYHLAQEYRDHAYSIANKIGSEEGLKQYYGLMNMSIQMFQLLKTKCTLSVLEDSKVTFEMVELLIQETYNFDLAELYISSLKERLQTHQSDTDLVEEIMRCEFLLLHDLPLMRDSKFHYKIALRNCNELVQYMVNLQDELYQNWASVFQYVGVMLCIKLKQHRRVKTSFHGLLSQCREKSQWKWFLNLCYVNYLLNERFPIPEDALQELRSTELHTVGPELYAWKLALEMVIQLCKDGNITDHLNEFKNFFDTNKQSLVTNEGKGCVIKIMPRIALKVELPMIFHYKELKNILLLLQSVSYIVNCYDEKGNFSRKFLPKVYSTTQKLIKNIAAGGVSMNELDSRIQTYKSILEFCEFYKVWEQTLLKGAVVTTESPKLGPSPGYVRLLQAMKVQFEGGGAVEEYTRLAQSGGTSSEVKMISLLNCYTVQAARVSRCSGDKQGELVEQCNKVWLQVEKLLQETDLQFNPIWECTVTILWLFSHFEPFSWNPLPCSDKQRAEYVSKLREFYSSNKFVAGEAVADNRFKLKKALLLQILVNYLGGRMLEHDLGEIYAISAKCFDMCRQQGGMRKVQYVIGIWHLMNCTVAMRGKDVALTNAKLEALVKQITSVKQ
B2: Smc3 (E1155Q) (protein, UniProt P47037 1-1230)
chain: MYIKRVIIKGFKTYRNETIIDNFSPHQNVIIGSNGSGKSNFFAAIRFVLSDDYSNLKREERQGLIHQGSGGSVMSASVEIVFHDPDHSMILPSGVLSRGDDEVTIRRTVGLKKDDYQLNDRNVTKGDIVRMLETAGFSMNNPYNIVPQGKIVALTNAKDKERLQLLEDVVGAKSFEVKLKASLKKMEETEQKKIQINKEMGELNSKLSEMEQERKELEKYNELERNRKIYQFTLYDRELNEVINQMERLDGDYNNTVYSSEQYIQELDKREDMIDQVSKKLSSIEASLKIKNATDLQQAKLRESEISQKLTNVNVKIKDVQQQIESNEEQRNLDSATLKEIKSIIEQRKQKLSKILPRYQELTKEEAMYKLQLASLQQKQRDLILKKGEYARFKSKDERDTWIHSEIEELKSSIQNLNELESQLQMDRTSLRKQYSAIDEEIEELIDSINGPDTKGQLEDFDSELIHLKQKLSESLDTRKELWRKEQKLQTVLETLLSDVNQNQRNVNETMSRSLANGIINVKEITEKLKISPESVFGTLGELIKVNDKYKTCAEVIGGNSLFHIVVDTEETATLIMNELYRMKGGRVTFIPLNRLSLDSDVKFPSNTTTQIQFTPLIKKIKYEPRFEKAVKHVFGKTIVVKDLGQGLKLAKKHKLNAITLDGDRADKRGVLTGGYLDQHKRTRLESLKNLNESRSQHKKILEELDFVRNELNDIDTKIDQVNGNIRKVSNDRESVLTNIEVYRTSLNTKKNEKLILEESLNAIILKLEKLNTNRTFAQEKLNTFENDLLQEFDSELSKEEKERLESLTKEISAAHNKLNITSDALEGITTTIDSLNAELESKLIPQENDLESKMSEVGDAFIFGLQDELKELQLEKESVEKQHENAVLELGTVQREIESLIAEETNNKKLLEKANNQQRLLLKKLDNFQKSVEKTMIKKTTLVTRREELQQRIREIGLLPEDALVNDFSDITSDQLLQRLNDMNTEISGLKNVNKRAFENFKKFNERRKDLAERASELDESKDSIQDLIVKLKQQKVNAVDSTFQKVSENFEAVFERLVPRGTAKLIIHRKNDNANDHDESIDVDMDAESNESQNGKDSEIMYTGVSISVSFNSKQNEQLHVEQLSGGQKTVCAIALILAIQMVDPASFYLFDQIDAALDKQYRTAVATLLKELSKNAQFICTTFRTDMLQVADKFFRVKYENKISTVIEVNREEAIGFIRGSNKFAEV

Tests used:
[1] = target: T1, Scc2 (budding yeast) (UniProt Q04002); test: co-purification (IgG affinity, heparin, size exclusion chromatography); Scc2 and Scc4 co-overexpressed in budding yeast; lysate on IgG agarose by the protein A tags on Scc2, 300 mM NaCl washes, 3C protease elution, HiTrap Heparin, Superdex 200 in buffer R; SDS-PAGE, Coomassie Blue and immunoblotting
T1 sequence: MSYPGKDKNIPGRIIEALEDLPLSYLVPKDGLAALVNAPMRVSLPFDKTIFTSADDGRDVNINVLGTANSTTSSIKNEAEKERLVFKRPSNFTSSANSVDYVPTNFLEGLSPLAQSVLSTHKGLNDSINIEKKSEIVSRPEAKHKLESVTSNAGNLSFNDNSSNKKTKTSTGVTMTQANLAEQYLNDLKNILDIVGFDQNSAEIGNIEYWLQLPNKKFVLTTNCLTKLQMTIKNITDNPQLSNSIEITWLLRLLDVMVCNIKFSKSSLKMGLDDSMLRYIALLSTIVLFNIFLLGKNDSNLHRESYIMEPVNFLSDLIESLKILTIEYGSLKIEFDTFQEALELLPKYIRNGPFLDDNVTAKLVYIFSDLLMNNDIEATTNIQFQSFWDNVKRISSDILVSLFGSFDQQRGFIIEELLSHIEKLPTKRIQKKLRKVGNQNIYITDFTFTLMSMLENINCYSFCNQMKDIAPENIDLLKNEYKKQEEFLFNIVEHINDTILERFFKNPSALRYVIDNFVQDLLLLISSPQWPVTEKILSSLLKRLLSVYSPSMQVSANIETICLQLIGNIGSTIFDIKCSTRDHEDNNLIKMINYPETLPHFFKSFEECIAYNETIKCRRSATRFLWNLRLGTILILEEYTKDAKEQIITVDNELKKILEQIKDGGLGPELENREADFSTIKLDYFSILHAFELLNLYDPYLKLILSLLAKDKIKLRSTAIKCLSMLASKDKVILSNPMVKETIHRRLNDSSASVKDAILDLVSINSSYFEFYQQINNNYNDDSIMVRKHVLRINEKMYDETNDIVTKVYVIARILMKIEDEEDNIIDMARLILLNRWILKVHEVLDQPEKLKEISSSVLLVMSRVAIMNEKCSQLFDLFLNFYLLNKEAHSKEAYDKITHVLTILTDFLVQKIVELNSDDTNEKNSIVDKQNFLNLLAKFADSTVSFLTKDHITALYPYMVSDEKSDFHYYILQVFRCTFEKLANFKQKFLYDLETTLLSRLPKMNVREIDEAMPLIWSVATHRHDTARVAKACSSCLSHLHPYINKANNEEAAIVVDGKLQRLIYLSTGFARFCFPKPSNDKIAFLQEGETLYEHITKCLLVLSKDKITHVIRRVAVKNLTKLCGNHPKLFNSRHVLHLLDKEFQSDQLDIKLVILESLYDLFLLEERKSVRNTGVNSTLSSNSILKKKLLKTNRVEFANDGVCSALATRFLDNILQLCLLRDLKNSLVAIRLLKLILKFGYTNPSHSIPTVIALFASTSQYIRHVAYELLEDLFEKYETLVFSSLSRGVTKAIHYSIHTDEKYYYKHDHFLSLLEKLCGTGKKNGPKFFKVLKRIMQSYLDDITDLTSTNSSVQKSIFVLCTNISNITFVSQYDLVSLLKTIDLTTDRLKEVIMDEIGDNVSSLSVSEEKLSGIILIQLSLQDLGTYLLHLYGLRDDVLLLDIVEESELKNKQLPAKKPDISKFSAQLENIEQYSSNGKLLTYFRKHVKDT

[2] = target: T2, Smc1 (E1158Q) (budding yeast) (UniProt P32908); test: co-purification (IgG affinity, heparin, size exclusion chromatography); four subunits co-overexpressed in budding yeast; lysate on IgG agarose by the protein A tags on Scc1, 300 mM NaCl washes, PreScission protease elution, HiTrap Heparin, Superose 6 in 150 mM NaCl; fractions analysed by SDS-PAGE, Coomassie Blue and immunoblotting
T2 sequence: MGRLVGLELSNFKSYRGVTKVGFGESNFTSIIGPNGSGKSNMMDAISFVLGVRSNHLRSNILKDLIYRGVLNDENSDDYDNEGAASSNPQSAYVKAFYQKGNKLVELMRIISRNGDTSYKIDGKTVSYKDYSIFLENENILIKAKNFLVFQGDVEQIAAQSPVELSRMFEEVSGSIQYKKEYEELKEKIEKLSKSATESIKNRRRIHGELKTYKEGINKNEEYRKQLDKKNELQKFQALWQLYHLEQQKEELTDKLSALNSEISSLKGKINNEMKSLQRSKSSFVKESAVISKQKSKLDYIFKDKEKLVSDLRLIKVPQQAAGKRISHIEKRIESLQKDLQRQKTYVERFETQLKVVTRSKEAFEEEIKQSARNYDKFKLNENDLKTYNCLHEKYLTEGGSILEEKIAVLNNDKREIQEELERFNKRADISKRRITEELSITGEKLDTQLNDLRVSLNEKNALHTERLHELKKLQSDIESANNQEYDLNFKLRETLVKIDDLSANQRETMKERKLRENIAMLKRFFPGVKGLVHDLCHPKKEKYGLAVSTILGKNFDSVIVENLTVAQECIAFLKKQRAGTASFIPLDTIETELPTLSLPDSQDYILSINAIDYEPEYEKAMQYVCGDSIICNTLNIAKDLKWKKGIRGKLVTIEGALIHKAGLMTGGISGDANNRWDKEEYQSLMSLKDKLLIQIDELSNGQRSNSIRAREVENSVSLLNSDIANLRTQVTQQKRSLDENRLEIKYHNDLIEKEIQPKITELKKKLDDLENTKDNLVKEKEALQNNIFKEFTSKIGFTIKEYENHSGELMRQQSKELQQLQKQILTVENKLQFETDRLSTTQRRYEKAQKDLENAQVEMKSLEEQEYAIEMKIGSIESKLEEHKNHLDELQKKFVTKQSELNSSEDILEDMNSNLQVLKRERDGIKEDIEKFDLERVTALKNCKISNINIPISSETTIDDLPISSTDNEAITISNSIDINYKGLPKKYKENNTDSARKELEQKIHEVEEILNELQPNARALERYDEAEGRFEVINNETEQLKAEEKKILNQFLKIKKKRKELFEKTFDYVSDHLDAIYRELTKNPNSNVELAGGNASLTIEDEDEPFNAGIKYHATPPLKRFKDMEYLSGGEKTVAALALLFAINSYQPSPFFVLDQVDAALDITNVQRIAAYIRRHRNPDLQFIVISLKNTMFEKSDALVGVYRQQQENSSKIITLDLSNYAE

Binder | binding [1] | binding [2]
B1 | binds | –
B2 | – | binds
